At least one structure is not confirmed: it was looked up by name or label, or the drawing left a doubt.
Tested on: NOS3 mRNA expression
Assay: NOS3 expression in frontal cortex of neuroleptic treated rats
Assay type: in vivo, rat
Conditions: one of three doses for 28 days, vs vehicle
Description: Referring to FIG. 19, 8-10 rats per treatment group were treated with one of three doses of either Haloperidol (0.08, 0.6, and 1 mg/kg) or Clozapine (0.5, 5, 10 mg/kg) for 28 days (as compared to rats treated with vehicle alone). Frontal cortex expression levels of NOS3 (ABI assay Rn02132634_sl) and KCNH2-1A (ABI assay Rn01442523_ml) were normalized to the geometric mean of two housekeeping genes (GAPDH, B2M). Effects of antipsychotic treatment on gene expression were tested by linear regression with gene expression as the dependent variable. Differences between vehicle alone and the two therapeutic range equivalent dosages (0.08 and 0.6 mg/kg/day of Haloperidol; 0.5 and 5 mg/kg/day of Clozapine) were tested using post-hoc LSD.

Compound: CN1CCN(C2=Nc3cc(Cl)ccc3Nc3ccccc32)CC1 [clozapine]
- effect on NOS3 expression within the frontal cortex: Neither clozapine nor haloperidol showed significant effects

— US8871443B2, “Schizophrenia-related isoform of KCNH2 and development of antipsychotic drugs” (The United States of America, as represented by the …, priority 2007, dated 2014)
